# How the values were obtained:
# KPL-4 Cell line = assay: Cell viability, DTD-activated quinone prodrugs (Example 15); type: cell-based
# Method: (§1) The toxicity of PBD dimer diaphorase prodrug 1, PBD monomer diaphorase prodrug 2, PBD dimer control 1 and PBD monomer control 1 were evaluated against KPL-4 and WSU cell lines for cell viability. The KPL-4 cell line is was a high DTD cell line characterized by NQO1 nRPKM of 839 and the WSU cell line was a low DTD cell line characterized by a NQO1 nRPKM of 1.36. The IC50 ratios are based on the prodrug IC50 value relative to the PBD dimer control.
# WSU Cell line = assay: as above; type: cell-based
# Method: as §1
Structure (SMILES),Ratio (prodrug IC50 relative to control) (KPL-4 Cell line),Ratio (prodrug IC50 relative to control) (WSU Cell line)
C=C1C[C@H]2C(O)N(C(=O)OCc3cc4c(n3C)C(=O)C=C(OC)C4=O)c3cc(OC)c(OC)cc3C(=O)N2C1 (stereo partly shown) [PBD monomer diaphorase prodrug 2],1,5
C=C1C[C@H]2C=Nc3cc(OCCCCCOc4cc5c(cc4OC)C(=O)N4CC(=C)C[C@H]4C(O)N5C(=O)OCc4cc5c(n4C)C(=O)C=C(OC)C5=O)c(OC)cc3C(=O)N2C1 (stereo partly shown) [PBD dimer diaphorase prodrug 1],17,43
